Here are results for 14 molecules from paper PMC6034817.

Chains of the proteins cited; added tags and fusions are not shown. Lines headed by an entry give the natural chain unless they say otherwise; changes in a name come on top. A line that says so, or that is headed by a name, gives the form on record, which may keep a tag or linker. Residues count along the entry.
UniProt P62191: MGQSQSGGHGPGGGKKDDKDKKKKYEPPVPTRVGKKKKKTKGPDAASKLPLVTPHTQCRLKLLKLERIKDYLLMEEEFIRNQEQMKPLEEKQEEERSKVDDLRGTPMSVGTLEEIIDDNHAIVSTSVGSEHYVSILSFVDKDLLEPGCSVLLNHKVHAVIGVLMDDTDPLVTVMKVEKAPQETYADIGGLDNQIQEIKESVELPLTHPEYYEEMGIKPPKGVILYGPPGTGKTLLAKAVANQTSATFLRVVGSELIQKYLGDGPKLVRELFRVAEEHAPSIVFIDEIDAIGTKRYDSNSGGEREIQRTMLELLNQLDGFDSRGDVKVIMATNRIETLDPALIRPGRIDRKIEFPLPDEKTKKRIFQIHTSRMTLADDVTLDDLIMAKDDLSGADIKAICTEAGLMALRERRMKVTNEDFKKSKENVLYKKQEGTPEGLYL
UniProt P35998: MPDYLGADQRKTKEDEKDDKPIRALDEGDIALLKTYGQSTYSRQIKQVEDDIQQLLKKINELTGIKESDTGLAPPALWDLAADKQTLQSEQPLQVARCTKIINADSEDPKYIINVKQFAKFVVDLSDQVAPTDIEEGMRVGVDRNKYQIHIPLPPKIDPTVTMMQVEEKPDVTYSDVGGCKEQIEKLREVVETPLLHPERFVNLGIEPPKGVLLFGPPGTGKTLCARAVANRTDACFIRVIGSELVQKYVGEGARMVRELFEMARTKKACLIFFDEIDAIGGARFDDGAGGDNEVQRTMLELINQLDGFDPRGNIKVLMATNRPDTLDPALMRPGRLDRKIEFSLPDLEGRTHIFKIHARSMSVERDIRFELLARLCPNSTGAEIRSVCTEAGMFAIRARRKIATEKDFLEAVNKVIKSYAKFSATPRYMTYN
UniProt P51784: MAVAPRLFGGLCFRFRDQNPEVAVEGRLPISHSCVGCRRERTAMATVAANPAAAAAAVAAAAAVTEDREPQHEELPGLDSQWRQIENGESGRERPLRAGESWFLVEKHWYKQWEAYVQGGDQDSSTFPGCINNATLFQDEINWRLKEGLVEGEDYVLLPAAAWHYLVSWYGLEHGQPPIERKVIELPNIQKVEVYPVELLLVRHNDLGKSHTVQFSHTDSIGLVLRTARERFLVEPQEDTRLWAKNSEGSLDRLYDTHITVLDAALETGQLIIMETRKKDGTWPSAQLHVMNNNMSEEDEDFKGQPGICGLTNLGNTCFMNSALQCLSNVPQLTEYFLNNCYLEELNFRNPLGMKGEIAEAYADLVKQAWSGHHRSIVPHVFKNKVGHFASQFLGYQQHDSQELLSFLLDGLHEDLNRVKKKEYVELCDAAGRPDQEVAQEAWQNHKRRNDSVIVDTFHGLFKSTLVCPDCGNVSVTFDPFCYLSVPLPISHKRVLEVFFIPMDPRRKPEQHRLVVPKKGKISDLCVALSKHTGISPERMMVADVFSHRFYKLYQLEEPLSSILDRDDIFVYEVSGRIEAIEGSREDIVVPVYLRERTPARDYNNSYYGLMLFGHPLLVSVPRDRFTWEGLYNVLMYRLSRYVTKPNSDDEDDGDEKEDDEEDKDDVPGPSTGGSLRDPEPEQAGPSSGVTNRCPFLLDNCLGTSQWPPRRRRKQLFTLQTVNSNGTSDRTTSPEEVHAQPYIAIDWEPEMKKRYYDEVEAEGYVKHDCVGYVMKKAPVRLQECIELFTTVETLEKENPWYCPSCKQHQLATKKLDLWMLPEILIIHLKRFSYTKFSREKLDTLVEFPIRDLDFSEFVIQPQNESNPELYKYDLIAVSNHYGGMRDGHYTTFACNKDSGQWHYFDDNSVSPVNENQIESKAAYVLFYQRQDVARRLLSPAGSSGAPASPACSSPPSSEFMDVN
UniProt Q93009: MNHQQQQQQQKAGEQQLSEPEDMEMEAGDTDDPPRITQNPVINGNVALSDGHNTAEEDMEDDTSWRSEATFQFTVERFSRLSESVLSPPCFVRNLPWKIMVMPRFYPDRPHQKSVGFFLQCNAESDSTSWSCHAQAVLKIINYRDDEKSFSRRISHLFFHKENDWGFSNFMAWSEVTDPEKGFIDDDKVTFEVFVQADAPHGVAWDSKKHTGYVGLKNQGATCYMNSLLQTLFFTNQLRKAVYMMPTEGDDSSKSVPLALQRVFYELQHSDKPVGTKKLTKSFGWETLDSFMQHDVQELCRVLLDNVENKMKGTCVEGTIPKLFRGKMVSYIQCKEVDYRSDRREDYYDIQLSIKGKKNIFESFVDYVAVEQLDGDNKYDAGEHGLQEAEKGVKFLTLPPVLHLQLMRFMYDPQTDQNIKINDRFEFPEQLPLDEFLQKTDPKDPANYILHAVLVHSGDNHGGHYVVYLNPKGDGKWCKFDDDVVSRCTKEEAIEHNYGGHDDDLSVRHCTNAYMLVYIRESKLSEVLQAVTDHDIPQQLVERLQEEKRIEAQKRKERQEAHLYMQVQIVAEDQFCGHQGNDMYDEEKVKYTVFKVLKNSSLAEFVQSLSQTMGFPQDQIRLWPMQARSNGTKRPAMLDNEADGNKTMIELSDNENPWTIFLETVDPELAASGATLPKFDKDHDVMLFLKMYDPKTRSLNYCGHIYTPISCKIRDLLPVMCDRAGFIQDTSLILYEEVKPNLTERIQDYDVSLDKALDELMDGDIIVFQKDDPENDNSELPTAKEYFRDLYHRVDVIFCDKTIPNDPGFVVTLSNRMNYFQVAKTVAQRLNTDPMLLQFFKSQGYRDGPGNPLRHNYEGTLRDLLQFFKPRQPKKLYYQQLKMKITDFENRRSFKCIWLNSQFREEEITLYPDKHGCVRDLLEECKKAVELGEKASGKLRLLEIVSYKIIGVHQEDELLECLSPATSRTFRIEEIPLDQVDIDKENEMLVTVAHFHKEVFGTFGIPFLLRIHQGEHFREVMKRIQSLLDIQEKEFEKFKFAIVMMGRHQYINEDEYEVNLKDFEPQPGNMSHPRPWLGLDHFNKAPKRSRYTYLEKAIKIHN
UniProt P08238: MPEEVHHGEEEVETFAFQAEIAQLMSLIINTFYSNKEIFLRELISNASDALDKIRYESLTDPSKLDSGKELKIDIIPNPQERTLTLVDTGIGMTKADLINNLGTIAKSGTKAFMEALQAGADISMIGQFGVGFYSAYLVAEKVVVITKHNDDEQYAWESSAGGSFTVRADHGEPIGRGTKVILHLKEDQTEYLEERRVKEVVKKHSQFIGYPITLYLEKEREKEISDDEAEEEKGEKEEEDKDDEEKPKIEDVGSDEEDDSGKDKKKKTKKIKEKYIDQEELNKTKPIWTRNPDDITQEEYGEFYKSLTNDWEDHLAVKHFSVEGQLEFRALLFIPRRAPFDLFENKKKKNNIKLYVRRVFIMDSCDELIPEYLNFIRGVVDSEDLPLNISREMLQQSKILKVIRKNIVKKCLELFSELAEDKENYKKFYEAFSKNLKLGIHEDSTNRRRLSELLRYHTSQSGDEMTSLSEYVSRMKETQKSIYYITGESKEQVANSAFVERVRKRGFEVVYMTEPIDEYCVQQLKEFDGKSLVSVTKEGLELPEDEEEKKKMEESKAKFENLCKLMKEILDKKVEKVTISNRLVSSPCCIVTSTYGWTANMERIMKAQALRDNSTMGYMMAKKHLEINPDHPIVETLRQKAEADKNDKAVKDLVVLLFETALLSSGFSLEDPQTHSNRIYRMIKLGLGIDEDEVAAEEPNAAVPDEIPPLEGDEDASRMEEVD
UniProt Q9UNE7, residues 73-303: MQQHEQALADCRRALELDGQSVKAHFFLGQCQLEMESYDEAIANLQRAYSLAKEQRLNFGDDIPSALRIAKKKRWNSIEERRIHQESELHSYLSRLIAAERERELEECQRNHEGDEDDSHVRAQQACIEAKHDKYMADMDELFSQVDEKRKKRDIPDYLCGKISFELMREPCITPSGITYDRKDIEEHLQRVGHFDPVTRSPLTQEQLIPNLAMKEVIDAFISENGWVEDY
UniProt P17980: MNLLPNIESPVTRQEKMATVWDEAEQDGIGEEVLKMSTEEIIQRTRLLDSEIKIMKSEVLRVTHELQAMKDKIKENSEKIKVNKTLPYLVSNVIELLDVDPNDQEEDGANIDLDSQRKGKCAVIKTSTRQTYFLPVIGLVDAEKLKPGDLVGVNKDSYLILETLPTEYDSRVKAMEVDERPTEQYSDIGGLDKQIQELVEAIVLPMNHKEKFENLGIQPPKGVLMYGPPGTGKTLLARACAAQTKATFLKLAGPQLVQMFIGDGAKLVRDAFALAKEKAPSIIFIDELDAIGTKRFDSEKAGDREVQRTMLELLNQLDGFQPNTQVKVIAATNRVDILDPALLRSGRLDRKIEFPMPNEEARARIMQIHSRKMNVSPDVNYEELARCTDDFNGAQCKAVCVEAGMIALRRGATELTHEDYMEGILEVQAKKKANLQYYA
UniProt O00232: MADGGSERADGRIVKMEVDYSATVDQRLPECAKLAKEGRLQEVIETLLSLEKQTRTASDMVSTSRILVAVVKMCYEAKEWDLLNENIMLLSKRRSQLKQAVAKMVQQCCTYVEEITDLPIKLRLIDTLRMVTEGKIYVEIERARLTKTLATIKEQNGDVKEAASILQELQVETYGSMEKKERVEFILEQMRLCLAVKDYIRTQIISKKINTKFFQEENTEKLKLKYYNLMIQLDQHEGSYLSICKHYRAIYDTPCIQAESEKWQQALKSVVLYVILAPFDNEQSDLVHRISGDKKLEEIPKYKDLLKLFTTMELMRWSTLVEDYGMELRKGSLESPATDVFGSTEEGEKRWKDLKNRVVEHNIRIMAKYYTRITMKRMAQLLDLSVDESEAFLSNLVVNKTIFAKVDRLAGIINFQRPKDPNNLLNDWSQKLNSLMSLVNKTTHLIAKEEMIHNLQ
26S proteasome non-ATPase regulatory subunit 1, Isoform 2 (Q99460-2, form named): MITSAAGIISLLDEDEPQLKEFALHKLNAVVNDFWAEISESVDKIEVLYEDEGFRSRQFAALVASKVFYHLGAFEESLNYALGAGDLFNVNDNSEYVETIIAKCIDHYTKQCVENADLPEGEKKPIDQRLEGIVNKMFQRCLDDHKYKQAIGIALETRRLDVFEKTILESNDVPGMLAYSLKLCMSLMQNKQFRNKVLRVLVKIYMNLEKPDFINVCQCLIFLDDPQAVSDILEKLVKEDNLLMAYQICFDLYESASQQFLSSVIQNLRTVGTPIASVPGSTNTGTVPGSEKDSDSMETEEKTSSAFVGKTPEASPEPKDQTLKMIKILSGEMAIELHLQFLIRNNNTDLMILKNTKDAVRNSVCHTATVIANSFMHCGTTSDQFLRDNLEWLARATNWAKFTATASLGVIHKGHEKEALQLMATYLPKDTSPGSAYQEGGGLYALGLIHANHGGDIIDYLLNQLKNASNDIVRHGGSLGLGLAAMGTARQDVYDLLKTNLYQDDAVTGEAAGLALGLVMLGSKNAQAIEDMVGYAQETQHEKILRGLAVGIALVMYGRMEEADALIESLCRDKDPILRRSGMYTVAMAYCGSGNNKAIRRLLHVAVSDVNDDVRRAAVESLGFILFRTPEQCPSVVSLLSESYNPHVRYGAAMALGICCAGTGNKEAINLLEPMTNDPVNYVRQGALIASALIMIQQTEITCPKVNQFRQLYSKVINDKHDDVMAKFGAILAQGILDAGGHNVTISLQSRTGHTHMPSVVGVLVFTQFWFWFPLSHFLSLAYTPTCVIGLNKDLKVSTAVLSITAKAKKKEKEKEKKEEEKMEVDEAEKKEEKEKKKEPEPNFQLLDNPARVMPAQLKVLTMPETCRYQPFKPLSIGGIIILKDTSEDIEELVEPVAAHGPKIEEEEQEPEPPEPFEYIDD
UniProt O00487: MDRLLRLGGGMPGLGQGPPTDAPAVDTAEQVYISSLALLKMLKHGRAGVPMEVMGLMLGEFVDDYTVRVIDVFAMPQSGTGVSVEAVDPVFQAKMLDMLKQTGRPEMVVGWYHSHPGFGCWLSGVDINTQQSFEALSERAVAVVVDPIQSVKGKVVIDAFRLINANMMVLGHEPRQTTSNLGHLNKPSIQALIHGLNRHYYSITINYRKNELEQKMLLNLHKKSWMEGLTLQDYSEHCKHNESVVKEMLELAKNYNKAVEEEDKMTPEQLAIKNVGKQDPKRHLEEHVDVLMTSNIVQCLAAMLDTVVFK

Results are given in words; binding and its absence hold for the method and conditions named. In cells and extracts the contact can be indirect. These calls come from enrichment with a bait or labelling near it, and not all partners need be listed.

T1: Human ALDH1L1 (10-formyltetrahydrofolate dehydrogenase), purified recombinant (human) (UniProt O75891)
T1 sequence: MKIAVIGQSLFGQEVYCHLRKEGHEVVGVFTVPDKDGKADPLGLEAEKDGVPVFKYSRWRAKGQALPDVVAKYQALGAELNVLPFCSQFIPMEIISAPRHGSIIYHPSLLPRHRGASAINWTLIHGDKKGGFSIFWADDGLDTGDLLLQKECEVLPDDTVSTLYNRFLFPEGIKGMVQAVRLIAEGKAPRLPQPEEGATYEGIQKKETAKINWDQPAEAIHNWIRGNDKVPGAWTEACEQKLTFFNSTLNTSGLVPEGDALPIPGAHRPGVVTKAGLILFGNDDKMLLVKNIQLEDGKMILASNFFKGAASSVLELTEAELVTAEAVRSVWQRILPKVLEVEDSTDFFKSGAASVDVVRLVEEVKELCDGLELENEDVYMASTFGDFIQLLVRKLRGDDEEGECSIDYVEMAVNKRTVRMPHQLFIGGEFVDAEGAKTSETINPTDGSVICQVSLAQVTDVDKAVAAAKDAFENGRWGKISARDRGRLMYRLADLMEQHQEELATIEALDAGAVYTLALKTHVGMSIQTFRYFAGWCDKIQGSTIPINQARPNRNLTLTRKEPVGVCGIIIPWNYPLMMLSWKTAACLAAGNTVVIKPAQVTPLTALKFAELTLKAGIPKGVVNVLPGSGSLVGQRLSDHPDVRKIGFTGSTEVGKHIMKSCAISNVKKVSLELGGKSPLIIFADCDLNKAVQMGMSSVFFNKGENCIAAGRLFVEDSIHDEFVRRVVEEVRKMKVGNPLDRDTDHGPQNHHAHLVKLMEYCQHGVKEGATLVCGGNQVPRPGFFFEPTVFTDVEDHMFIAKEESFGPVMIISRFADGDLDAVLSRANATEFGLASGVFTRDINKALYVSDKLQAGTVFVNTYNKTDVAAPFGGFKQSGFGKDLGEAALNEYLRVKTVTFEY

B1: Isoform 2 of Ubiquitin carboxyl-terminal hydrolase 47 (enzyme, UniProt Q96K76-2 1-1287)
chain: MVPGEENQLVPKEAPLDHTSDKSLLDANFEPGKKNFLHLTDKDGEQPQILLEDSSAGEDSVHDRFIGPLPREGSGGSTSDYVSQSYSYSSILNKSETGYVGLVNQAMTCYLNSLLQTLFMTPEFRNALYKWEFEESEEDPVTSIPYQLQRLFVLLQTSKKRAIETTDVTRSFGWDSSEAWQQHDVQELCRVMFDALEQKWKQTEQADLINELYQGKLKDYVRCLECGYEGWRIDTYLDIPLVIRPYGSSQAFASVEEALHAFIQPEILDGPNQYFCERCKKKCDARKGLRFLHFPYLLTLQLKRFDFDYTTMHRIKLNDRMTFPEELDMSTFIDVEDEKSPQTESCTDSGAENEGSCHSDQMSNDFSNDDGVDEGICLETNSGTEKISKSGLEKNSLIYELFSVMVHSGSAAGGHYYACIKSFSDEQWYSFNDQHVSRITQEDIKKTHGGSSGSRGYYSSAFASSTNAYMLIYRLKDPARNAKFLEVDEYPEHIKNLVQKERELEEQEKRQREIERNTCKIKLFCLHPTKQVMMENKLEVHKDKTLKEAVEMAYKMMDLEEVIPLDCCRLVKYDEFHDYLERSYEGEEDTPMGLLLGGVKSTYMFDLLLETRKPDQVFQSYKPGEVMVKVHVVDLKAESVAAPITVRAYLNQTVTEFKQLISKAIHLPAETMRIVLERCYNDLRLLSVSSKTLKAEGFFRSNKVFVESSETLDYQMAFADSHLWKLLDRHANTIRLFVLLPEQSPVSYSKRTAYQKAGGDSGNVDDDCERVKGPVGSLKSVEAILEESTEKLKSLSLQQQQDGDNGDSSKSTETSDFENIESPLNERDSSASVDNRELEQHIQTSDPENFQSEERSDSDVNNDRSTSSVDSDILSSSHSSDTLCNADNAQIPLANGLDSHSITSSRRTKANEGKKETWDTAEEDSGTDSEYDESGKSRGEMQYMYFKAEPYAADEGSGEGHKWLMVHVDKRITLAAFKQHLEPFVGVLSSHFKVFRVYASNQEFESVRLNETLSSFSDDNKITIRLGRALKKGEYRVKVYQLLVNEQEPCKFLLDAVFAKGMTVRQSKEELIPQLREQCGLELSIDRFRLRKKTWKNPGTVFLDYHIYEEDINISSNWEVFLEVLDGVEKMKSMSQLAVLSRRWKPSEMKLDPFQEVVLESSSVDELREKLSEISGIPLDDIEFAKGRGTFPCDISVLDIHQDLDWNPKVSTLNVWPLYICDDGAVIFYRDKTEELMELTDEQRNELMKKESSRLQKTGHRVTYSPRKEKALKIYLDGAPNKDLTQD

The target of the experiment is T1, Human ALDH1L1 (10-formyltetrahydrofolate dehydrogenase), purified recombinant (human). Kind of experiment: affinity purification with mass spectrometry; purified recombinant human ALDH1L1 (about 4 mg) held on folate (5-formyl-THF) affinity resin; A549 lysate loaded in 20 mM Tris-HCl pH 7.8, 150 mM NaCl, 10 mM 2-mercaptoethanol, 0.1% Triton X-100; washed with loading buffer and 0.5 M KCl; 2.0 M KCl eluate analysed by LC/MS-MS; proteins found on a column without ALDH1L1 excluded; only the target purified.
With “26S protease regulatory subunit 4 (from UniProt P62191 1-440)”, the binding result is “binds”.

In the case of “26S protease regulatory subunit 7 (from UniProt P35998 1-433)”, the binding entry was “binds”.

For the molecule “Ubiquitin specific protease 9, X-linked isoform 4 (human (endogenous in A549)) (enzyme)”, the binding result is reported as “binds”.

Regarding “Ubiquitin carboxyl-terminal hydrolase 11 (from UniProt P51784 1-963) (enzyme)”, the binding result is reported as “binds”.

Turning to “Ubiquitin carboxyl-terminal hydrolase (USP7) (from UniProt Q93009 1-1102) (enzyme)”, the binding result is listed as “binds”.

For “Heat shock protein HSP 90-beta (from UniProt P08238 1-724)”, the binding entry was “binds”.

As to “Isoform 2 of STIP1 homology and U box-containing protein 1 (STUB1, E3 ubiquitin-protein ligase CHIP) (from UniProt Q9UNE7-2 1-231) (enzyme)”, the binding result is “binds”.

For “26S protease regulatory subunit 6B Isoform 2 (from UniProt P43686-2 1-387)”, the binding result is listed as “binds”.

On to “26S protease regulatory subunit 6A (from UniProt P17980 1-439)”, for which the binding entry is given as “binds”.

Turning to “26S proteasome non-ATPase regulatory subunit 12 (from UniProt O00232 1-456)”, the binding result was “binds”.

For the molecule “26S proteasome non-ATPase regulatory subunit 1, Isoform 2 (from UniProt Q99460-2 1-922)”, the binding entry is “binds”.

In the case of “Isoform 1 of Heat shock protein HSP 90-alpha (from UniProt P07900 1-732)”, the binding result is on record as “binds”.

On to “26S proteasome non-ATPase regulatory subunit 14 (from UniProt O00487 1-310)”, for which the binding result is reported as “binds”.

For the molecule B1, the binding entry is “binds”.
